# PubChem BioAssay AID1508588 – Peter MacCallum Cancer Centre, 2020
# Aim: 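Which gene losses make BRAF-mutant melanoma cells more responsive to vemurafenib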 (primary screen)
# Cells: human WM266.4 melanoma cells (BRAF V600 mutant)
# Reagents: siRNA pool against human genes, 40 nM
# Duration: 96 h from transfection to read-out
# Challenge: vemurafenib 300 nM (about IC25), added 48 h after transfection, for 48 h; comparison arm got DMSO vehicle only
# Measurement: 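Ratios to non-targeting siRNA for cell gain, counted as DAPI nuclei after minus before drug and averaged over two replicates, and for absorbance-read medium lactate per cell; both binned into fold-change classes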
# Reading the numbers: cell gain with vemurafenib: higher = more cell gain than with non-targeting siRNA; lactate per cell with vemurafenib: higher = more lactate made per cell
# Hit rule: 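Enhancement is called by pairing each knock-down's vehicle-arm and drug-arm fold-change classes for viability or glycolysis; which class combinations qualify is not given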
# Meaning of the calls: active = enhances vemurafenib effect; inactive = no enhancement seen
# In all, the deposit lists about 18,000 reagents; below is an unselected part. 790 of them (4.4%) count as active. 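Calls rest on a combination of fold-change classes in drug and vehicle arms, not all shown here.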 Unmarked entries are inactive.
gene symbol,cell gain with vemurafenib,lactate per cell with vemurafenib
GPR34 (G protein-coupled receptor 34),0.39,1.56
CGB2 (chorionic gonadotropin subunit beta 2),0.19,3.17
C1orf54 (chromosome 1 open reading frame 54),0.82,0.85
LILRB5 (leukocyte immunoglobulin like receptor B5),0.9,0.67
REEP5 (receptor accessory protein 5),0.41,1.22
RASGEF1A (RasGEF domain family member 1A),0.44,1.42
MATN2 (matrilin 2),0.13,0.3
MBNL1 (muscleblind like splicing regulator 1),0.42,1.06
DIRAS1 (DIRAS family GTPase 1),0.56,1.7
RETSAT (retinol saturase),0.31,0.55
PODXL2 (podocalyxin like 2),0.25,1.33
"ITPR3 (inositol 1,4,5-trisphosphate receptor type 3)",0.93,0.24
TRIM9 (tripartite motif containing 9),0.56,1.08
CHD7 (chromodomain helicase DNA binding protein 7),0.66,1.31
GPR101 (G protein-coupled receptor 101),0.07 (active),0.18
ADPRS (ADP-ribosylserine hydrolase),0.5,1.12
CREB1 (cAMP responsive element binding protein 1),0.31,0.91
GRIA2 (glutamate ionotropic receptor AMPA type subunit 2),0.56,1.6
KIFC2 (kinesin family member C2),0.19,0.76
STRIP2 (striatin interacting protein 2),0.35,1.5
PPAN (peter pan homolog),0.83,1.08
HDAC9 (histone deacetylase 9),0.42,1.33
"PPM1L (protein phosphatase, Mg2+/Mn2+ dependent 1L)",0.39,1.88
OOEP (oocyte expressed protein),0.89,0.73
CPLANE1 (ciliogenesis and planar polarity effector complex subunit 1),0.17 (active),0.38
RBAKDN (RBAK downstream neighbor),1.05,1.13
"LIPG (lipase G, endothelial type)",1.01,0.63
CCDC146 (coiled-coil domain containing 146),0.79,0.97
CCDC167 (coiled-coil domain containing 167),0.52,0.88
AAAS (aladin WD repeat nucleoporin),0.59,1.29
SLC40A1,0.81,0.42
STX3 (syntaxin 3),0.6,1.14
DMAC1 (distal membrane arm assembly component 1),0.27,1.9
TP53AIP1 (tumor protein p53 regulated apoptosis inducing protein 1),0.57,0.98
"ABHD4 (abhydrolase domain containing 4, N-acyl phospholipase B)",0.37,0.64
CCDC88B (coiled-coil and HOOK domain protein 88B),0.46,1.02
PKN1 (protein kinase N1),0.78,1.21
CCDC170 (coiled-coil domain containing 170),0.68,0.94
B3GNT3,1.16,0.8
RADIL (Rap associating with DIL domain),0.71,0.66
SEZ6L (seizure related 6 homolog like),0.59,0.54
APBB1IP,0.37,1.6
AGBL3 (AGBL carboxypeptidase 3),0.46,2.27
DDX41 (DEAD-box helicase 41),0.46,1.43
HERC4 (HECT and RLD domain containing E3 ubiquitin protein ligase 4),0.43,1.01
"NICN1 (nicolin 1, tubulin polyglutamylase complex subunit)",0.33,1.24
TRAF7 (TNF receptor associated factor 7),0.66,0.44
TGFB2 (transforming growth factor beta 2),0.45,0.78
KRTAP9-2 (keratin associated protein 9-2),0.64,0.84
WASF1 (WASP family member 1),0.67,0.26
ITGA5 (integrin subunit alpha 5),1.05,0.74
BPHL (biphenyl hydrolase like),0.84,1.6
"FOSL2 (FOS like 2, AP-1 transcription factor subunit)",0.26,1.5
DPP9 (dipeptidyl peptidase 9),0,1.05
JAKMIP2 (janus kinase and microtubule interacting protein 2),0.69,1.05
SYNGR3 (synaptogyrin 3),0.72,1.1
ZFP36L1 (ZFP36 like 1 zinc finger CCCH-type),0.52,1.77
MICALL1 (MICAL like 1),1.23,0.88
ZNF34 (zinc finger protein 34),0.39,1.04
SCAMP2,0.98 (active),0.44
PLXND1 (plexin D1),0.44,0.9
SCFD1 (sec1 family domain containing 1),0.6,0.55
SOCS7 (suppressor of cytokine signaling 7),-0.09,2.03
TEX13B (testis expressed 13B),0.53,0.29
GADL1 (GAD like acidic amino acid decarboxylase 1),0.84,0.54
ELAPOR2,0.74,0.74
CSNK2A1 (casein kinase 2 alpha 1),1.12,0.58
CKAP4 (cytoskeleton associated protein 4),0.37,1.78
ZNF581 (zinc finger protein 581),0.41,1.02
ENTPD3 (ectonucleoside triphosphate diphosphohydrolase 3),0.43,1.36
"RAP1A (RAP1A, member of RAS oncogene family)",0.44,0.81
SPRR1A (small proline rich protein 1A),0.41,1.33
YBEY (ybeY metalloendoribonuclease),-0.19 (active),-0.04
KRTAP10-4 (keratin associated protein 10-4),0.77,0.7
"TEX15 (testis expressed 15, meiosis and synapsis associated)",0.6 (active),0.38
AKR1B15 (aldo-keto reductase family 1 member B15),0.78,0.73
MAK16 (MAK16 homolog),0.38,0.82
LNX2 (ligand of numb-protein X 2),0.34,0.68
RECQL5 (RecQ like helicase 5),0.46,1.25
KRTAP19-6 (keratin associated protein 19-6),0.28,0.86
SV2C (synaptic vesicle glycoprotein 2C),0.52,1.29
SPIN1 (spindlin 1),0.88,0.91
SHKBP1 (SH3KBP1 binding protein 1),0.63,1.12
NME2 (NME/NM23 nucleoside diphosphate kinase 2),0.54,0.73

Ordered by “lactate per cell with vemurafenib” (descending): 6 of the entries above.
gene symbol,cell gain with vemurafenib,lactate per cell with vemurafenib
RBAKDN (RBAK downstream neighbor),1.05,1.13
CCDC146 (coiled-coil domain containing 146),0.79,0.97
CCDC167 (coiled-coil domain containing 167),0.52,0.88
OOEP (oocyte expressed protein),0.89,0.73
"LIPG (lipase G, endothelial type)",1.01,0.63
CPLANE1 (ciliogenesis and planar polarity effector complex subunit 1),0.17 (active),0.38
